Here are results for 15 compounds from the odorant receptor screen of Mainland et al. (2015).

Common to all, as to assay: odorant receptor activation (CRE luciferase / Renilla) (fold of no-odor wells); higher = more activation
Settings in all cases: 100 µM

Test [1] deals with OR1N2 W23R/V230G/T287M clone 1105.
Test [2] deals with OR1N2 W37R/V244G/T301M clone 1350.
Test [3] has as its system OR1N2 clone 1505.
Test [4] relates to OR1Q1 Q24R/I163M clone 1103.
The subject of test [5] is OR1S1 clone 1455.
For test [6], the system named is OR1S2 I46T clone 1137.
For test [7], the system named is OR2A1 clone 1078.
Test [8] has as its system OR2A12 clone 1085.
The subject of test [9] is OR2A14 Indel clone 1540.
The subject of test [10] is OR2A14 clone 1083.
The subject of test [11] is OR2A2 F280L clone 1541.
Test [12] concerns OR2A2 clone 1476.
The test system of test [13] is OR2A25 clone 1387.
Test [14] relates to OR2A4 clone 1386.
In test [15] the test system is OR2A42 clone 1565.
Test [16] relates to OR2A5 clone 1437.
Test [17] has as its system OR2A7 clone 1077.
In test [18] the test system is OR2A7 clone 1543.
The subject of test [19] is OR2AE1 I77T clone 1079.
The test system of test [20] is OR2AG1 clone 1112.

Values joined by “and” are separate entries in the source; they are usually repeats but may differ in a detail not shown here. Equal values may be shown once. This is one part of the list. Single wells; the ratio to wells without odorant was worked out here, and repeats agree poorly.

In the case of `CC12CCC(CC1)C(C)(C)O2` [cineole], the odorant receptor activation amounted to 0.848 in test [1]; 1.02 in test [2]; 1.01 in test [3]; 1.15 in [4]; 1.18 in test [5]; 0.807 in [6]. Further, the odorant receptor activation in test [7] was found to be 0.902; in test [8], 1.04; in [9] it was 1.19; in test [10] it was 0.832; in test [11] it was 0.999; in [12], 1.15. Further, the odorant receptor activation is 0.219 in test [13]; 0.154 in [14]; 0.864 in [15]; 0.269 in test [16]; 0.683 in [17]; 0.856 in test [18]. For the same compound, the odorant receptor activation in test [19] amounted to 0.879; in test [20], 0.75.

In the case of `CC(=O)OC1CC2CCC1(C)C2(C)C` (stereo not given) [isobornyl acetate], the odorant receptor activation in [1] was 1.9; in [2], 1.13 and 0.804; in test [3], 0.779 and 1.11; in [4] it was 0.886; in [5], 0.572; in [6], 1.09. The odorant receptor activation is 0.778 in [7]; 1.69 in test [8]; 1.2 and 0.93 in test [9]; 3.36 in [10]; 0.962 and 0.877 in [11]; 1.09 and 1.03 in [12]. Moreover, the odorant receptor activation is 0.946 in test [13]; 0.893 in test [14]; 1.16 in [15]; 0.968 in [16]; 0.823 in test [17]; 0.913 and 0.699 in [18]. In addition, the odorant receptor activation came out at 0.663 in test [19] and 0.845 in [20].

`CC(=O)c1ccccc1` [acetophenone]: the odorant receptor activation was 1.87 in test [1]; 1.02 and 0.702 in test [2]; 0.945 and 0.729 in [3]; 0.526 in test [4]; 1.1 in test [6]; 1.64 in test [7]. In addition, the odorant receptor activation in [8] is 0.862; in test [10], 0.801; in [12], 1.2 and 1.06; in test [13], 1.12; in test [14] it was 0.827; in test [16] it was 1.2. Further, the results for the odorant receptor activation in test [17], in test [19] and in test [20] were 0.425, 0.953 and 0.57, respectively.

For the compound `O=C1CCCCC1` [Cyclohexanone], the odorant receptor activation is 3.32 in test [1]; 1.04 and 0.943 in test [2]; 0.74 and 0.783 in [3]; 0.87 in test [4]; 0.509 in test [6]; 1.09 in test [7]. In addition, the odorant receptor activation was 2.28 in test [8]; 1.44 in [10]; 0.758 and 1.09 in test [12]; 1.02 in test [13]; 0.771 in test [14]; 0.98 in test [16]. In addition, the values for the odorant receptor activation in [17], in [19] and in test [20] were 0.412, 1.56 and 0.553, respectively.

In the case of `CC1COCc2cc3c(cc21)C(C)(C)C(C)C3(C)C` (stereo not given) [galaxolide], the odorant receptor activation was 4.61 in test [1]; 5.16 and 3.32 in test [2]; 6.34 and 3.54 in test [3]; 4.38 in test [4]; 1.42 and 1.27 in test [5]; 4.84 in test [6]. The odorant receptor activation is 1.99 in test [7]; 2.78 in test [8]; 1.16 in test [10]; 3.41 in test [13]; 3.6 in test [14]; 3.43 in test [16]. Also, the odorant receptor activation stood at 4.08 in test [17], 2.31 in [19] and 3.47 in [20].

Regarding `CC(=O)OCC=C(C)CCC=C(C)C` [geranyl acetate], the odorant receptor activation in [1] was 2.14; in test [2], 1.47 and 1.35; in test [3], 0.939 and 1.31; in [4] it was 1.7; in test [5], 1.12; in test [6] it was 1.34. For the same compound, the odorant receptor activation in [7] is 1.09; in test [8] it was 5.82; in [9], 0.975 and 1.95; in [10] it was 4.04; in test [11] it was 1.09 and 1.62; in test [12] it was 1.01 and 1.15. Besides, the odorant receptor activation in test [13] was 2.86; in [14], 0.999; in test [15] it was 1.52; in test [16] it was 1.14; in test [17] it was 2.31; in test [18] it was 1.27 and 1.19. In addition, the odorant receptor activation worked out at 1.54 in test [19] and 1.7 in test [20].

In the case of `COc1cc(C=O)ccc1O` [vanillin], the odorant receptor activation came out at 1.03 in test [1]; 0.828 in test [2]; 1.1 in [3]; 1.06 in test [4]; 1.4 in test [5]; 1.21 in [6]. The odorant receptor activation in test [7] was found to be 0.955; in [8] it was 0.783; in test [9], 0.962; in [10] it was 1.12; in [11] it was 0.854; in test [12], 1.11. The odorant receptor activation in test [13] turned out to be 1.25; in [14], 1.29; in [15], 0.762; in test [16], 1; in test [17], 0.596; in [18] it was 0.893. The odorant receptor activation was determined as 0.79 in [19] and 0.811 in test [20].

For `C=C(C)C1CC=C(C)C(=O)C1` (stereo not given) [r-carvone], the odorant receptor activation in test [1] was 0.922; in test [2] it was 0.521; in test [3] it was 0.995; in test [4] it was 1.2; in [5], 0.854; in [6], 1.17. Also, the odorant receptor activation came to 0.987 in [7]; 0.878 in [8]; 0.795 in test [9]; 1.06 in test [10]; 0.884 in test [11]; 1.02 in [12]. Moreover, the odorant receptor activation was determined as 1.88 in [13]; 1.12 in [14]; 0.795 in [15]; 1.16 in [16]; 0.837 in test [17]; 0.804 in [18]. The odorant receptor activation in [19] came out at 0.957; in test [20], 0.857.

On to `CCCCCOC(C)=O` [n-amyl acetate], for which the odorant receptor activation in [1] was 1.32; in test [2] it was 0.967 and 0.834; in [3], 0.673 and 0.832; in test [4], 0.966; in test [5], 1.28; in test [6] it was 0.572. For the same compound, the odorant receptor activation in test [7] is 2.17; in test [8], 1.24; in test [10], 1.53; in test [12], 0.588 and 0.978; in [13], 0.759; in test [14], 0.685. The odorant receptor activation is 1.19 in test [15]; 1.17 in test [16]; 0.873 in test [17]; 1.85 in [19]; 0.776 in test [20].

On to `C=CCSCC=C` [diallyl sulfide], for which the odorant receptor activation stood at 0.957 in test [1]; 1.13 in test [2]; 1.21 in [3]; 1.16 in [4]; 0.766 in test [5]; 1.23 in [6]. For the same compound, the odorant receptor activation in test [7] turned out to be 0.707; in test [8] it was 1; in [9] it was 1.33; in test [10], 1.15; in [11] it was 1.18; in test [12], 1.43. In addition, the odorant receptor activation was 0.907 in test [13]; 1.21 in [14]; 0.785 in test [15]; 1.28 in [16]; 0.811 in test [17]; 1.21 in test [18]. Also, the odorant receptor activation in test [19] turned out to be 1.13; in [20] it was 1.01.

Turning to `CC1CCC(C(C)C)C(O)C1` (single isomer, unassigned; (-)) [(-)-menthol], the odorant receptor activation turned out to be 4.42 in [1]; 1.01 in test [2]; 4.25 in [3]; 18.4 in test [4]; 1.11 in test [5]; 1.12 in [6]. The odorant receptor activation in [7] was found to be 4.36; in [8], 2.24; in test [9], 4.25; in test [10] it was 2.49; in test [11] it was 3.57; in test [12], 3.99. The odorant receptor activation in test [13] turned out to be 0.853; in [14] it was 0.739; in test [15], 0.588; in test [16], 0.628; in test [17], 3.54; in test [18] it was 2.9. The odorant receptor activation was 18.1 in test [19] and 8.64 in [20].

`CC12C=CCC1C1CCC3CC(=O)CCC3(C)C1CC2` (stereo not given) [androstenone]: the odorant receptor activation was determined as 3.07 in test [1]; 0.89 in test [2]; 1.13 in test [3]; 12.1 in [4]; 3.72 in [6]; 2.43 in [7]. Besides, the odorant receptor activation in test [8] was determined as 1.55; in [9] it was 1.04; in test [10], 1.78; in test [11] it was 1.36; in [12], 1.04; in test [13], 1.12. Moreover, the odorant receptor activation in [14] was 1.52; in [16], 0.635; in test [17], 1.44; in test [18], 0.906; in test [19], 12.8; in test [20], 5.42.

On to `CC(=O)OC(C)(C)C1CC=C(C)CC1` (stereo not given) [terpinyl acetate], for which the odorant receptor activation in test [1] was 1.59; in [2], 0.538; in test [3], 1.15; in [4], 1.72; in test [5], 0.953; in test [6] it was 1.75. Also, the odorant receptor activation in [7] is 1.29; in test [8], 1.29; in test [9], 0.979; in test [10] it was 1.84; in test [11] it was 1.09; in [12], 0.995. Further, the odorant receptor activation in [13] was 1.26; in test [14] it was 1.1; in [15], 0.723; in test [16], 0.891; in test [17], 1.51; in test [18], 1.06. The odorant receptor activation turned out to be 1.13 in test [19] and 1.1 in test [20].

Take `CC(C)CCC(=O)O` [4-methylvaleric acid]: the odorant receptor activation in test [1] turned out to be 2.66; in test [2] it was 0.974; in [3], 0.814; in test [4] it was 11.4; in test [5], 0.857; in test [6], 0.825. Also, the odorant receptor activation was found to be 2.65 in test [7]; 1.24 in [8]; 1.09 in [9]; 1.72 in test [10]; 0.963 in [11]; 0.955 in test [12]. The odorant receptor activation worked out at 1.22 in test [13]; 0.394 in [14]; 0.722 in test [15]; 0.901 in test [16]; 1.51 in test [17]; 0.964 in test [18]. Also, the odorant receptor activation in test [19] turned out to be 12.3; in test [20], 4.53.

In the case of `CCCCCCC=O` [heptaldehyde], the odorant receptor activation in test [1] is 2.01 and 0.944; in [5] it was 0.823; in test [7], 1.94 and 1.45; in test [8] it was 2.05 and 0.791; in test [9] it was 1.16 and 1.35; in [10], 0.812 and 0.52. For the same compound, the odorant receptor activation in test [11] was 1.02 and 1.49; in test [13], 0.997 and 0.814; in [14], 0.877 and 0.879; in test [15] it was 0.976; in [16], 1.17 and 0.86; in test [17] it was 0.549 and 1.06. The odorant receptor activation in test [18] was 0.972 and 0.756; in test [19], 2.29 and 1.11; in test [20] it was 0.622 and 1.37.
